Counter-ions that a name gives are not always drawn. This is one part of the list. This data set is noisy: repeats of one test often differ as much as different tests do.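 Human embryonic kidney cells were transiently transfected with a plasmid bearing a Renilla luciferase gene under the HSV-TK promoter. This first-round screen tests roughly ten thousand compounds for ones that increase reporter output.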

The values that follow come from the supplement of paper PMC7024190.

The test system of the test is HEK 293FT. The test is described as follows: log relative Renilla luciferase luminescence (reporter expression vs reference, reference not stated) (log (base not stated)); higher = higher recombinant reporter expression. The following applies: 10 µM; time after transfection 48 h. On the procedure: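 HEK 293FT cells transiently transfected with pRL-TK (Renilla luciferase) were treated with compounds at 10 uM and luminescence was read about 42 h later. Values are log relative Renilla luminescence (log base and reference not stated). Single-pass screen; ICCB Known Bioactives library.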
`CCCCC/C=C\C/C=C\C/C=C\C/C=C\CCCC(=O)OC(CO)CO` [2-Arachidonoylglycerol]: the log was -0.107.
For `CCC(C)[C@H](NS(=O)(=O)c1cccc2ccccc12)C(=O)N[C@H](C=O)Cc1c[nH]c2ccccc12` (stereo not given in full), the log came to 0.312.
For the molecule `CCCCC/C=C\C/C=C\C/C=C\C/C=C\CCCC(=O)O[C@@H](CO)COCCCCCCCCCCCCCCCC` [1-Hexadecyl-2-arachidonoyl-glycerol], the log is -0.167.
For `COC(=O)C1=C(C)NC(C)=C(C(=O)OCCCN2CCC(c3ccccc3)(c3ccccc3)CC2)[C@H]1c1cccc([N+](=O)[O-])c1` [Niguldipine], the log was 0.186.
The result for `CC(C)=CCC/C(C)=C/CC/C(C)=C/CSCC(=O)O` [Farnesylthioacetic acid] reads -0.145; that for `CC(=O)N[C@@H](CC(C)C)C(=O)N[C@@H](CC(C)C)C(=O)N[C@H](C=O)CCCNC(=N)N` [Leupeptin], 0.363; that for `CC(=O)O[C@H]1C(=O)[C@@]2(C)[C@H]([C@H](OC(=O)c3ccccc3)[C@]3(O)C[C@H](OC(=O)[C@H](O)[C@@H](NC(=O)c4ccccc4)c4ccccc4)C(C)=C1C3(C)C)[C@]1(OC(C)=O)CO[C@@H]1C[C@@H]2O` [Taxol = Paclitaxel], 0.106.
With `CCCCC/C=C\C/C=C\CCCCCCCC(=O)O[C@@H](CO)COC(=O)CCCCCCCCCCCCCCCCC` [1-Stearoyl-2-linoleoyl-glycerol], the log is -0.0446.
Consider `Cc1c2oc3c(C)ccc(C(=O)N[C@@H]4C(=O)N[C@H](C(C)C)C(=O)N5CCC[C@H]5C(=O)N(C)CC(=O)N(C)[C@@H](C(C)C)C(=O)O[C@@H]4C)c3nc-2c(C(=O)N[C@@H]2C(=O)N[C@H](C(C)C)C(=O)N3CCC[C@H]3C(=O)N(C)CC(=O)N(C)[C@@H](C(C)C)C(=O)O[C@@H]2C)c(N)c1=O` [Actinomycin D], for which the log was -1.45.
Next, `CCCCC[C@H](O)/C=C/[C@@H]1[C@H]2C/C(=C/CCCC(=O)O)C[C@H]2C[C@H]1O` [Carbacyclin]: 0.238; `CS(=O)(=O)Nc1ccc([N+](=O)[O-])cc1Oc1ccccc1` [Nimesulide]: -0.154.
Regarding `CCCCCCCCCCCCCCCC(=O)NCCO` [Palmitylethanolamide], the log was -0.126.
In the case of `CCCCC/C=C\C/C=C\C/C=C\CCCCC(=O)O` [g-Linolenic acid (18:3 n-6)], the log is -0.229.
Regarding `CCCCC/C=C\C\C=C/C=C/C=C/CC(=O)CCCC(=O)O` [5-Ketoeicosatetraenoic acid], the log was -0.00555.
Regarding `COc1cccc2c1C(=O)c1c(O)c3c(c(O)c1C2=O)C[C@@](O)(C(=O)CO)C[C@@H]3O[C@H]1C[C@H](N)[C@H](O)[C@H](C)O1` [Doxorubicin], the log was -0.406.
On to `CCCCCCCCCCC/C=C\C/C=C\CCCC(=O)O` [Eicosa-5,8-dienoic acid (20:2 n-12)], for which the log is 0.0744.
The result for `O=[N+]([O-])c1cccc2c(Br)[nH]nc12` [Bromo-7-nitroindazole [3-Bromo-7-nitroindazole]] reads -0.267; that for `C=C[C@H]1CN2CC[C@H]1C[C@@H]2[C@@H](O)c1ccnc2ccc(OC)cc12` [Quinidine], 0.154; that for `N#CC(=Cc1cc(Cl)cc(Cl)c1)c1cccnc1`, -0.247.
As for `Nc1cc(N2CCCCC2)nc(N)[n+]1OS(=O)(=O)[O-]` [Minoxidil sulfate], the log worked out at 0.233.
Regarding `CCCCCCCC/C=C\CCCCCCCC(=O)OCC(CO)OC(=O)CCCCCCC/C=C\CCCCCCCC` (stereo not given) [1,2-Dioleoyl-glycerol (18:1)], the log was -0.276.
For the molecule `CCCCCCCCCCCCCC(=O)N[C@H](C)[C@@H](O)c1ccccc1` [MAPP, D-erythro], the log is -0.185.
Turning to `CCCCCCCCCCCCCCCCCCOC[C@H](COP(=O)([O-])OCC[N+](C)(C)C)OC(C)=O`, the log is -0.159.
Turning to `CCN(CC)CC(=O)Nc1c(C)cccc1C` [Lidocaine], the log was determined as 0.0206.
Take `CCCCC[C@H](O)CC(=O)CCc1ccc(O)c(OC)c1` [Gingerol]: the log stood at 0.238.
Take `CCCCC[C@H](O)/C=C/[C@@H]1[C@H]2C/C(=C/CCCC(=O)O)O[C@H]2C[C@H]1O` [Prostaglandin I2 Na]: the log is -0.0513.
Consider `CCCCC/C=C\C[C@H](O)/C=C/C=C\C/C=C\CCCC(=O)O`, for which the log is 0.125.
Turning to `CCCCC/C=C\C[C@@H](O)/C=C/C=C\C/C=C\CCCC(=O)O`, the log was -0.14.
As to `CCCCC[C@H](O)/C=C/C=C\C/C=C\C/C=C\CCCC(=O)O`, the log was -0.0523.
The result for `CCCCC[C@H](O)/C=C/[C@@H]1[C@@H](CC(=O)CCCCC(=O)O)[C@@H](O)C[C@H]1O` [6-Keto-prostaglandin F1a] reads -0.07.
